Experimental data as given in article PMC7367201.

By UniProt entry, the sequences of proteins in these tests, tags left out. Where a name states a change or a piece, a line headed by the entry shows the natural chain unless it says otherwise. Residues count along the entry.
UniProt Q15233, 53-312: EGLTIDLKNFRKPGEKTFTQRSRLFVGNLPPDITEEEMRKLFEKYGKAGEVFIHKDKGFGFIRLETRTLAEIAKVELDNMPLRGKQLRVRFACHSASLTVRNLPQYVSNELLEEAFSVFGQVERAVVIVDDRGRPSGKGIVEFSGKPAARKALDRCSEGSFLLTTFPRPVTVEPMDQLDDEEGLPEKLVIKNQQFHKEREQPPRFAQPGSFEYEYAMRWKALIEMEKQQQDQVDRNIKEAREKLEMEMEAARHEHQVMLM
UniProt P23246: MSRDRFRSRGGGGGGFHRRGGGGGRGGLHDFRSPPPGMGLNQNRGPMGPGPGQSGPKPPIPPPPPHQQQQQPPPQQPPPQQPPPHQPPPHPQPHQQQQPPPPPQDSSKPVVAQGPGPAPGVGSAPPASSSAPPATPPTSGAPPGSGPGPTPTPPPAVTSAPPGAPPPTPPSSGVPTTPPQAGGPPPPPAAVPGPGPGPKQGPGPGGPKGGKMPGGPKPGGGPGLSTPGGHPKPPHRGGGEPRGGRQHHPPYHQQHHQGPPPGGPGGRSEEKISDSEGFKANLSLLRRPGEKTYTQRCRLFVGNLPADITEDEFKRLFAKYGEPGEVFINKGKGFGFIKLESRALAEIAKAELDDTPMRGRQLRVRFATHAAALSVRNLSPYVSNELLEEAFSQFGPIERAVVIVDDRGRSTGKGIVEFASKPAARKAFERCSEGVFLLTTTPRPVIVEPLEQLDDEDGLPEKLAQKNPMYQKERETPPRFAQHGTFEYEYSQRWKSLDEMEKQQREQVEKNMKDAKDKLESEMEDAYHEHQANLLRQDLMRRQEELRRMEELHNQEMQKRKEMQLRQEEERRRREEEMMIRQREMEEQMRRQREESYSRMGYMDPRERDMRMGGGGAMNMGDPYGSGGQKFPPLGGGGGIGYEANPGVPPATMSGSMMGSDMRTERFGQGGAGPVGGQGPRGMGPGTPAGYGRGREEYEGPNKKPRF

What was measured:
[1] = target: NONO endogenous (Homo sapiens (HEK293T)) (UniProt Q15233); assay: pull-down, western blot; conditions: pulldown: 10 mM HEPES pH 7.0, 200 mM KCl, 1% Triton X-100, 1 mM MgCl2, 1 mM DTT, 4 C, washes to 1.6 M KCl; protein in an extract; label: 3' biotin
[2] = target: T1, PSPC1 endogenous (Homo sapiens (HEK293T)) (UniProt Q8WXF1); assay: pull-down, western blot; conditions: pulldown: 10 mM HEPES pH 7.0, 200 mM KCl, 1% Triton X-100, 1 mM MgCl2, 1 mM DTT, 4 C, washes to 1.6 M KCl; protein in an extract; label: 3' biotin
T1 sequence (looked up, limits assumed): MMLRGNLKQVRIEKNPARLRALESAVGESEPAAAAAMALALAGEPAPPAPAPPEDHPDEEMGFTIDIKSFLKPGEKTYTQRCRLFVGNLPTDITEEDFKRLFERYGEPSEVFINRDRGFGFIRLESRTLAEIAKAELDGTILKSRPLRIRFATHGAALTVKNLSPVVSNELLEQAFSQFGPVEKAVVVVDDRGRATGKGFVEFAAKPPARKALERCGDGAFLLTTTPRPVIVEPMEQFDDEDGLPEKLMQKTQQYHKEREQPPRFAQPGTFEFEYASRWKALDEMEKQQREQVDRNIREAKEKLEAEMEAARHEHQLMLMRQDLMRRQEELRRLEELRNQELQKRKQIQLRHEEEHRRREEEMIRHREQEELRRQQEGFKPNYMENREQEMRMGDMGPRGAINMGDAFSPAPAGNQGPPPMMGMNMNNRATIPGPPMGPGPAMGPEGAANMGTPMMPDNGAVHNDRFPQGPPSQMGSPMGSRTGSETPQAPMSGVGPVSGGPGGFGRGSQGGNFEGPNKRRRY

[3] = target: SFPQ endogenous (Homo sapiens (HEK293T)) (UniProt P23246); assay: pull-down, western blot; conditions: pulldown: 10 mM HEPES pH 7.0, 200 mM KCl, 1% Triton X-100, 1 mM MgCl2, 1 mM DTT, 4 C, washes to 1.6 M KCl; protein in an extract; label: 3' biotin
[4] = target: hnRNP K endogenous (Homo sapiens (HEK293T)) (UniProt P61978); assay: pull-down, western blot; conditions: pulldown: 10 mM HEPES pH 7.0, 200 mM KCl, 1% Triton X-100, 1 mM MgCl2, 1 mM DTT, 4 C, washes to 1.6 M KCl; protein in an extract; label: 3' biotin
[5] = target: T1, PSPC1 endogenous (Homo sapiens (HEK293T)); assay: pull-down, TMT mass spectrometry; conditions: pulldown: 10 mM HEPES pH 7.0, 200 mM KCl, 1% Triton X-100, 1 mM MgCl2, 1 mM DTT, 4 C, washes to 1.6 M KCl; protein in an extract; label: 3' biotin
[6] = target: NONO endogenous (Homo sapiens (HEK293T)) (UniProt Q15233); assay: pull-down, TMT MS and western blot; conditions: pulldown: 10 mM HEPES pH 7.0, 200 mM KCl, 1% Triton X-100, 1 mM MgCl2, 1 mM DTT, 4 C, washes to 1.6 M KCl; protein in an extract; label: 3' biotin
[7] = target: SFPQ endogenous (Homo sapiens (HEK293T)) (UniProt P23246); assay: pull-down, TMT MS and western blot; conditions: pulldown: 10 mM HEPES pH 7.0, 200 mM KCl, 1% Triton X-100, 1 mM MgCl2, 1 mM DTT, 4 C, washes to 1.6 M KCl; protein in an extract; label: 3' biotin
NONO full-length = NONO full-length (UniProt Q15233); assay: EMSA; conditions: annealed without KCl; NONO(53-312) EMSA: 20 mM HEPES pH 7.5, 5.7 mM Tris-HCl, 113 mM KCl, 10% glycerol, 62 mM L-proline, 1% EMPIGEN BB, 0.12 mM EDTA, 4 C 1 h, 10 nM RNA; commercial protein; residues 1-471; protein details: MYC/DDK; label: 3' Cy5
NONO(53-312) = NONO(53-312) (UniProt Q15233); assay: EMSA; conditions: annealed without KCl; NONO(53-312) EMSA: 20 mM HEPES pH 7.5, 5.7 mM Tris-HCl, 113 mM KCl, 10% glycerol, 62 mM L-proline, 1% EMPIGEN BB, 0.12 mM EDTA, 4 C 1 h, 10 nM RNA; recombinant protein; residues 53-312; protein details: His tag removed by TEV; label: 3' Cy5

Row | Sequence | binding signal (ratio over beads) [5] | binding result [6] | binding result [7] | other results
1 | CCCCGGCCCCGGCCCCGGCCCCGG [Antisense (CCCCGG)4, biotin] |  |  |  | binding result [1]: binds more weakly; binding result [2]: binds more weakly; binding result [3]: binds more weakly; binding result [4]: binds
2 | GCGAGUGUGUGAGACGUCGC [Scrambled, biotin] | 2.2 | binds more weakly | binds more weakly | 
3 | GGGAAGGGGAUGGGGAUUGUGGG [NEAT1_3226, biotin] | 4.77 | binds | binds | 
4 | GGGAGGGAGGGAGGG [NEAT1_22619 non-G-quadruplex] |  |  |  | binding result (NONO full-length): binds more weakly; binding result (NONO(53-312)): binds more weakly
5 | GGGAGGGAGGGAGGG [NEAT1_22619, biotin] | 4.06 | binds | binds | 
6 | GGGGCCGGGGCCGGGGCCGGGGCC [(GGGGCC)4 non-G-quadruplex] |  |  |  | binding result (NONO(53-312)): binds more weakly
7 | GGGGCCGGGGCCGGGGCCGGGGCC [Sense (GGGGCC)4 G-quadruplex, biotin] |  |  |  | binding result [1]: binds; binding result [2]: binds; binding result [3]: binds; binding result [4]: binds more weakly
8 | GGGUGCAGGGCUGCAGGAGGGCCGGGAGGG [NEAT1_425, biotin] | 4.62 | binds | binds | 

For at least one entry, the source does not settle the construct or the ends of the probe. For some assays here: The comparison behind a weaker result is the experiment's own reference, which may not be listed here. For some assays here: At least one result comes from cells or an extract, where the contact may be indirect. For some assays here: At least one verdict was read from the data and is not stated in words by the source. For some assays here: Protein sequences can lack the tags named with them. For some assays here: Whether high values mean tight binding is not given here for every scale.
